Results taken from patent US20250194600A1, “MESOIONIC ARYLPYRIDAZINIUM DERIVATIVE OR SALT THEREOF AND INSECTICIDAL AGENT CONTAINING THE COMPOUND AND METHOD FOR USING SAME” (NIHON NOHYAKU CO., LTD., priority 2022, published 2025).
Some entries share one result that the patent states for a list of compounds.

Assays:
Type in all cases: in vivo
[1] = test system: Diamondback moth (Plutella xylostella); test: Insecticidal test on diamondback moth, dip treatment of Chinese cabbage seedlings with laid eggs; settings: seedlings with eggs dipped about 30 seconds, counted 6 days after dip treatment, 25° C.
[2] = test system: Western flower thrips (Frankliniella occidentalis); test: Insecticidal test on western flower thrips, larvae on kidney bean leaf pieces; settings: hatched larvae on kidney bean leaf pieces, counted 4 days after treatment
[3] = test system: Small Brown Planthopper (Laodelphax striatellus); test: Insecticidal test on small brown planthopper, dip treatment of rice plant seedlings; settings: rice seedlings dipped 30 seconds, 3rd-instar larvae, counted 8 days after inoculation

COc1cc(-[n+]2cc([O-])c(C(=O)Nc3ccc(F)c(F)c3)c(O)n2)ccc1C#N [1-47]
A (the mortality rate is 100%.): insecticidal efficacy (corrected mortality rate) against diamondback moth ([1]; 50 ppm dispersion) | insecticidal efficacy (corrected mortality rate) against diamondback moth ([1]; 500 ppm dispersion) | insecticidal efficacy (corrected mortality rate) against western flower thrips ([2]; 500 ppm) | insecticidal efficacy (corrected mortality rate) against small brown planthopper ([3]; 50 ppm) | insecticidal efficacy (corrected mortality rate) against small brown planthopper ([3]; 500 ppm)

O=C(Nc1ccc(F)cn1)c1c([O-])c[n+](-c2ccc(Br)nc2)nc1O [1-82]
A (the mortality rate is 100%.): insecticidal efficacy (corrected mortality rate) against diamondback moth ([1]; 50 ppm dispersion) | insecticidal efficacy (corrected mortality rate) against diamondback moth ([1]; 500 ppm dispersion) | insecticidal efficacy (corrected mortality rate) against western flower thrips ([2]; 50 ppm) | insecticidal efficacy (corrected mortality rate) against western flower thrips ([2]; 500 ppm) | insecticidal efficacy (corrected mortality rate) against small brown planthopper ([3]; 50 ppm) | insecticidal efficacy (corrected mortality rate) against small brown planthopper ([3]; 500 ppm)

COc1cc(-[n+]2cc([O-])c(C(=O)Nc3ccc(F)cn3)c(O)n2)ccc1C#N [1-53]
A (the mortality rate is 100%.): insecticidal efficacy (corrected mortality rate) against diamondback moth ([1]; 50 ppm dispersion) | insecticidal efficacy (corrected mortality rate) against diamondback moth ([1]; 500 ppm dispersion) | insecticidal efficacy (corrected mortality rate) against western flower thrips ([2]; 500 ppm) | insecticidal efficacy (corrected mortality rate) against small brown planthopper ([3]; 50 ppm) | insecticidal efficacy (corrected mortality rate) against small brown planthopper ([3]; 500 ppm)

N#Cc1ccc(-[n+]2cc([O-])c(C(=O)Nc3ccc(F)cn3)c(O)n2)cn1 [1-122]
A (the mortality rate is 100%.): insecticidal efficacy (corrected mortality rate) against diamondback moth ([1]; 50 ppm dispersion) | insecticidal efficacy (corrected mortality rate) against diamondback moth ([1]; 500 ppm dispersion) | insecticidal efficacy (corrected mortality rate) against western flower thrips ([2]; 50 ppm) | insecticidal efficacy (corrected mortality rate) against western flower thrips ([2]; 500 ppm) | insecticidal efficacy (corrected mortality rate) against small brown planthopper ([3]; 50 ppm) | insecticidal efficacy (corrected mortality rate) against small brown planthopper ([3]; 500 ppm)

Cc1cc(-[n+]2cc([O-])c(C(=O)Nc3ccc(F)cc3)c(O)n2)cnc1C#N [1-132]
A (the mortality rate is 100%.): insecticidal efficacy (corrected mortality rate) against diamondback moth ([1]; 50 ppm dispersion) | insecticidal efficacy (corrected mortality rate) against diamondback moth ([1]; 500 ppm dispersion) | insecticidal efficacy (corrected mortality rate) against western flower thrips ([2]; 50 ppm) | insecticidal efficacy (corrected mortality rate) against western flower thrips ([2]; 500 ppm) | insecticidal efficacy (corrected mortality rate) against small brown planthopper ([3]; 50 ppm) | insecticidal efficacy (corrected mortality rate) against small brown planthopper ([3]; 500 ppm)

O=C(Nc1ccc(F)cn1)c1c([O-])c[n+](-c2ccc(Cl)cn2)nc1O [1-63]
A (the mortality rate is 100%.): insecticidal efficacy (corrected mortality rate) against diamondback moth ([1]; 50 ppm dispersion) | insecticidal efficacy (corrected mortality rate) against diamondback moth ([1]; 500 ppm dispersion) | insecticidal efficacy (corrected mortality rate) against western flower thrips ([2]; 50 ppm) | insecticidal efficacy (corrected mortality rate) against western flower thrips ([2]; 500 ppm) | insecticidal efficacy (corrected mortality rate) against small brown planthopper ([3]; 50 ppm) | insecticidal efficacy (corrected mortality rate) against small brown planthopper ([3]; 500 ppm)

N#Cc1ccc(-[n+]2cc([O-])c(C(=O)Nc3ccc(Cl)nc3)c(O)n2)cn1 [1-124]
A (the mortality rate is 100%.): insecticidal efficacy (corrected mortality rate) against diamondback moth ([1]; 500 ppm dispersion) | insecticidal efficacy (corrected mortality rate) against western flower thrips ([2]; 500 ppm) | insecticidal efficacy (corrected mortality rate) against small brown planthopper ([3]; 50 ppm) | insecticidal efficacy (corrected mortality rate) against small brown planthopper ([3]; 500 ppm)

N#Cc1ccc(-[n+]2cc([O-])c(C(=O)Nc3ccc(Cl)cc3)c(O)n2)cn1 [1-112]
A (the mortality rate is 100%.): insecticidal efficacy (corrected mortality rate) against diamondback moth ([1]; 50 ppm dispersion) | insecticidal efficacy (corrected mortality rate) against diamondback moth ([1]; 500 ppm dispersion) | insecticidal efficacy (corrected mortality rate) against western flower thrips ([2]; 50 ppm) | insecticidal efficacy (corrected mortality rate) against western flower thrips ([2]; 500 ppm) | insecticidal efficacy (corrected mortality rate) against small brown planthopper ([3]; 500 ppm)

O=C(Nc1ccc(F)cn1)c1c([O-])c[n+](-c2ccc(C(F)(F)F)cc2)nc1O [1-18]
A (the mortality rate is 100%.): insecticidal efficacy (corrected mortality rate) against diamondback moth ([1]; 50 ppm dispersion) | insecticidal efficacy (corrected mortality rate) against diamondback moth ([1]; 500 ppm dispersion) | insecticidal efficacy (corrected mortality rate) against western flower thrips ([2]; 50 ppm) | insecticidal efficacy (corrected mortality rate) against western flower thrips ([2]; 500 ppm) | insecticidal efficacy (corrected mortality rate) against small brown planthopper ([3]; 50 ppm) | insecticidal efficacy (corrected mortality rate) against small brown planthopper ([3]; 500 ppm)

O=C(Nc1ccc(F)cn1)c1c([O-])c[n+](-c2ccc(C(F)(F)F)nc2)nc1O [1-91]
A (the mortality rate is 100%.): insecticidal efficacy (corrected mortality rate) against diamondback moth ([1]; 50 ppm dispersion) | insecticidal efficacy (corrected mortality rate) against diamondback moth ([1]; 500 ppm dispersion) | insecticidal efficacy (corrected mortality rate) against western flower thrips ([2]; 50 ppm) | insecticidal efficacy (corrected mortality rate) against western flower thrips ([2]; 500 ppm) | insecticidal efficacy (corrected mortality rate) against small brown planthopper ([3]; 50 ppm) | insecticidal efficacy (corrected mortality rate) against small brown planthopper ([3]; 500 ppm)

O=C(Nc1ccc(F)c(F)c1)c1c([O-])c[n+](-c2ccc(Cl)nc2)nc1O [1-67]
A (the mortality rate is 100%.): insecticidal efficacy (corrected mortality rate) against diamondback moth ([1]; 50 ppm dispersion) | insecticidal efficacy (corrected mortality rate) against diamondback moth ([1]; 500 ppm dispersion) | insecticidal efficacy (corrected mortality rate) against western flower thrips ([2]; 50 ppm) | insecticidal efficacy (corrected mortality rate) against western flower thrips ([2]; 500 ppm) | insecticidal efficacy (corrected mortality rate) against small brown planthopper ([3]; 50 ppm) | insecticidal efficacy (corrected mortality rate) against small brown planthopper ([3]; 500 ppm)

O=C(Nc1ccc(F)cc1)c1c([O-])c[n+](-c2ccc(Cl)cn2)nc1O [1-62]
A (the mortality rate is 100%.): insecticidal efficacy (corrected mortality rate) against diamondback moth ([1]; 50 ppm dispersion) | insecticidal efficacy (corrected mortality rate) against diamondback moth ([1]; 500 ppm dispersion) | insecticidal efficacy (corrected mortality rate) against western flower thrips ([2]; 50 ppm) | insecticidal efficacy (corrected mortality rate) against western flower thrips ([2]; 500 ppm) | insecticidal efficacy (corrected mortality rate) against small brown planthopper ([3]; 50 ppm) | insecticidal efficacy (corrected mortality rate) against small brown planthopper ([3]; 500 ppm)

COc1ccc(NC(=O)c2c([O-])c[n+](-c3ccc(Br)nc3)nc2O)cn1 [1-84]
A (the mortality rate is 100%.): insecticidal efficacy (corrected mortality rate) against diamondback moth ([1]; 50 ppm dispersion) | insecticidal efficacy (corrected mortality rate) against diamondback moth ([1]; 500 ppm dispersion) | insecticidal efficacy (corrected mortality rate) against western flower thrips ([2]; 50 ppm) | insecticidal efficacy (corrected mortality rate) against western flower thrips ([2]; 500 ppm) | insecticidal efficacy (corrected mortality rate) against small brown planthopper ([3]; 50 ppm) | insecticidal efficacy (corrected mortality rate) against small brown planthopper ([3]; 500 ppm)

Cc1cc(-[n+]2cc([O-])c(C(=O)Nc3ccc(Cl)nc3)c(O)n2)cnc1C#N [1-136]
A (the mortality rate is 100%.): insecticidal efficacy (corrected mortality rate) against diamondback moth ([1]; 50 ppm dispersion) | insecticidal efficacy (corrected mortality rate) against diamondback moth ([1]; 500 ppm dispersion) | insecticidal efficacy (corrected mortality rate) against western flower thrips ([2]; 50 ppm) | insecticidal efficacy (corrected mortality rate) against western flower thrips ([2]; 500 ppm) | insecticidal efficacy (corrected mortality rate) against small brown planthopper ([3]; 50 ppm) | insecticidal efficacy (corrected mortality rate) against small brown planthopper ([3]; 500 ppm)

O=C(Nc1ccc(F)cn1)c1c([O-])c[n+](-c2ccc(Cl)nc2)nc1O [1-76]
A (the mortality rate is 100%.): insecticidal efficacy (corrected mortality rate) against diamondback moth ([1]; 50 ppm dispersion) | insecticidal efficacy (corrected mortality rate) against diamondback moth ([1]; 500 ppm dispersion) | insecticidal efficacy (corrected mortality rate) against western flower thrips ([2]; 50 ppm) | insecticidal efficacy (corrected mortality rate) against western flower thrips ([2]; 500 ppm) | insecticidal efficacy (corrected mortality rate) against small brown planthopper ([3]; 50 ppm) | insecticidal efficacy (corrected mortality rate) against small brown planthopper ([3]; 500 ppm)

O=C(Nc1ccc(F)nc1)c1c([O-])c[n+](-c2ccc(Cl)nc2)nc1O [1-77]
A (the mortality rate is 100%.): insecticidal efficacy (corrected mortality rate) against diamondback moth ([1]; 50 ppm dispersion) | insecticidal efficacy (corrected mortality rate) against diamondback moth ([1]; 500 ppm dispersion) | insecticidal efficacy (corrected mortality rate) against western flower thrips ([2]; 50 ppm) | insecticidal efficacy (corrected mortality rate) against western flower thrips ([2]; 500 ppm) | insecticidal efficacy (corrected mortality rate) against small brown planthopper ([3]; 50 ppm) | insecticidal efficacy (corrected mortality rate) against small brown planthopper ([3]; 500 ppm)

Cc1cc(-[n+]2cc([O-])c(C(=O)Nc3ccc(F)c(F)c3)c(O)n2)cnc1C#N [1-129]
A (the mortality rate is 100%.): insecticidal efficacy (corrected mortality rate) against diamondback moth ([1]; 50 ppm dispersion) | insecticidal efficacy (corrected mortality rate) against diamondback moth ([1]; 500 ppm dispersion) | insecticidal efficacy (corrected mortality rate) against western flower thrips ([2]; 50 ppm) | insecticidal efficacy (corrected mortality rate) against western flower thrips ([2]; 500 ppm) | insecticidal efficacy (corrected mortality rate) against small brown planthopper ([3]; 50 ppm) | insecticidal efficacy (corrected mortality rate) against small brown planthopper ([3]; 500 ppm)
